Results deposited as PubChem BioAssay AID1508597 (Cure First, 2020)
Aim: 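Knock-downs altering ovarian cancer cell survival with or without PARP inhibitor rucaparib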 (primary screen). Cells: human ovarian carcinoma lines grown from tumours: OCI-P5x (papillary serous) and OCI-C5x (clear cell). Knock-down reagent: siRNA pool against human genes, 1.25 pmol siRNA per well. Time to read-out: 72 h or 96 h, depending on the cell culture. Treatment: rucaparib 20 µM (about IC30) or vehicle, present until read-out. Rucaparib or vehicle: Rucaparib. Cell line: OCI-P5x (serous). Detection: 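Luminescent ATP-based viability assay read 72 or 96 h after transfection, depending on culture, given as normalised percent viability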. Reading the numbers: viability, normalised: higher = more viable cells remaining. Rule for the call: 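Active when normalised viability falls below 80 percent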. Meaning of the calls: active = viability under 80%; inactive = viability 80% or more.
This is an unselected part of the about 2,100 reagents, under one of the conditions tested. 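Calls flag viability under 80% in either arm, not effects specific to rucaparib; the reference for percent is not stated.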 Unmarked entries are inactive. A reagent listed more than once was tested more than once; the source does not tell the runs apart. Not given: the 100% reference.

gene | technical replicate | viability, normalised (%)
TGM3 | 1 | 64.3 (active)
TGM3 | 2 | 55.8 (active)
TGM3 | 3 | 58.7 (active)
GADD45G | 1 | 79.9 (active)
GADD45G | 2 | 86.2
GADD45G | 3 | 74.3 (active)
ACIN1 | 1 | 52.5 (active)
ACIN1 | 2 | 59.2 (active)
ACIN1 | 3 | 54.3 (active)
MTRFR | 1 | 68.8 (active)
MTRFR | 2 | 75.6 (active)
MTRFR | 3 | 74.7 (active)
TSSK2 | 1 | 93.8
TSSK2 | 2 | 99.5
TSSK2 | 3 | 94.7
ERBB3 | 1 | 69.4 (active)
ERBB3 | 2 | 76.3 (active)
ERBB3 | 3 | 65.7 (active)
BAP1 | 1 | 56.9 (active)
BAP1 | 1 | 91.9
BAP1 | 2 | 110
BAP1 | 2 | 69.6 (active)
BAP1 | 3 | 79.5 (active)
BAP1 | 3 | 99.6
BRPF1 | 1 | 85.4
BRPF1 | 2 | 87.5
BRPF1 | 3 | 93.3
TDP2 | 1 | 46 (active)
TDP2 | 1 | 65.4 (active)
TDP2 | 2 | 43.3 (active)
TDP2 | 2 | 82.3
TDP2 | 3 | 50.4 (active)
TDP2 | 3 | 43.6 (active)
HECTD3 | 1 | 85.5
HECTD3 | 2 | 92.5
HECTD3 | 3 | 87.6
EEF2K | 1 | 78.6 (active)
EEF2K | 2 | 78 (active)
EEF2K | 3 | 50.2 (active)

In a second layout: 2 of the entries above
{"gene": "MTRFR", "technical replicate": "1", "viability, normalised (%)": "68.8 (active)"}
{"gene": "MTRFR", "technical replicate": "2", "viability, normalised (%)": "75.6 (active)"}
